{"source": "PubChem BioAssay AID1259280 (Sanger Institute, 2017)", "test": "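Kinome siRNA screen for partners that synergise with BYL719, cetuximab or trametinib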 (primary screen)", "system": "human SNU407 colorectal cancer cells", "reagent": "siRNA pool against human genes", "conditions": "anchor drugs BYL719 at 1 µM, cetuximab at 5 µg/ml or trametinib at 10 nM, or DMSO vehicle alone; exposure time not given", "detection": "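Viability per well scaled to a non-targeting pool and averaged over replicates, with a robust z-score from controls and a synergy score per anchor drug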", "scale": "viability z-score, no drug: higher = more cells survive the knock-down", "hit rule": "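a knock-down counts as essential when its robust viability z-score without drug is below -3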", "meaning of the calls": "active = essential (knock-down alone kills cells); inactive = no change without drug", "note": "This is one part, drawn at random, of 794 reagents. 12 of all reagents (1.5%) were called active. 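Calls cover knock-down without drug only; synergy scores stand apart, values above 0.15 being treated as synergy.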 Unmarked entries are inactive. Further read-outs or replicates are left out here. Not given: the amount of reagent, the time to read-out."}
{"Target gene": "PIK3CD", "viability z-score, no drug": 0.901}
{"Target gene": "HIPK1", "viability z-score, no drug": -0.142}
{"Target gene": "MAGI2", "viability z-score, no drug": 0.706}
{"Target gene": "PIM2", "viability z-score, no drug": -0.577}
{"Target gene": "CASK", "viability z-score, no drug": -0.947}
{"Target gene": "CDKN2B", "viability z-score, no drug": -0.0515}
{"Target gene": "MAP4K4", "viability z-score, no drug": 0.0808}
{"Target gene": "CRKL", "viability z-score, no drug": 0.73}
{"Target gene": "PKN1", "viability z-score, no drug": 0.695}
{"Target gene": "BMPR1B", "viability z-score, no drug": 0.714}
{"Target gene": "TRIB1", "viability z-score, no drug": 0.0875}
{"Target gene": "BMPR1A", "viability z-score, no drug": -0.785}
